This is a noisy data set.
B1: human tRNA-Pro; a variant is named by its letters at N, in order (parent)
chain: GGCTCGTTGGTCTAGNGGTATGATTCTCGCTTAGGGTGCGAGAGGTCCCGGGTTCNNATCCCGGACGAGCCC

Variants of: B1
Test: tRNA 3' processing efficiency (processed reads / all reads, maximum-likelihood estimate) (fraction); higher = more efficient 3' processing
Settings: HEK293T; construct: no Pol-II promoter ((-)CMV library)

Variant | tRNA 3' processing efficiency
GAC G18A T19C A20T | 0.25
TAG T8C A58T | 0.4
GAG T8C T19A A58G | 0.18
GAG T19G A20C A58T T59C | 0.25
TAT G9T T19C T59C | 0.5
GAT G15T G18T A20C | 0.25
GAA T59G C60T | 0.2
AAT A14T G15A T19G | 0.4
CAA T19A G51A A58T | 0.27
GAC G17A G18A T19C A33G | 0.5
CAG A14C G15T T19C A20T | 0.25
CAA T19G A58T T59C | 0.14
CAT G18C T59G | 0.25
CAA T19G T53A T59G | 0.3
GAG T8G G15A G17C | 0.2
AAG G17A G18C | 0.4
CAC A20G T59G | 0.25
TAC T53A T59G | 0.25
GAA T19C G64A | 0.29
GAA T19A A20C T54A T59C | 0.57
GAT G17C G18C T19G A20T | 0.62
AAG T8C G15T A58C | 0.18
CAA T8G A20T T59A | 0.14
CAT G15A A58G | 0.29

Some values from the results shown:
tRNA 3' processing efficiency, TAC T53A T59G is entered as 0.25
tRNA 3' processing efficiency, TAG T8C A58T is entered as 0.4
tRNA 3' processing efficiency, CAA T19G A58T T59C is entered as 0.14
tRNA 3' processing efficiency, CAT G18C T59G is entered as 0.25
tRNA 3' processing efficiency, GAT G17C G18C T19G A20T is entered as 0.62

The list goes on:

Variant | tRNA 3' processing efficiency
TAG T19A G22T | 0.17
GAA T19G A20C G52T | 0.17
GAC T8C T19G | 0.5
TAC A14T G15C | 0.5
GAC T7C G17C | 0.25
GAA T8G A14G G15A A58G | 0.36
GAG T8G A14C G34T A58T T59A | 0.14
GAA T8G G17C T19A A20T A58C | 0.2
GAT G17T G18C T31A | 0.25
AAG A14G A20G | 0.1
CAA T59G G63A | 0.5
GAC G9A T19A A58T | 0.4
CAC A14G G15A | 0.73
GAG C70T | 0.62
GAG A14G G15A T19A A58G | 0.17
GAG A20T A58G T59G | 0.4
GAA T19A T54C A58G | 0.25
CAT A14T A58G T59A | 0.5
GAG A14T G18A T19C | 0.4
GAT A14G G15A G18A | 0.25
GAC T8C T59C | 0.15
TAG G9C A20C | 0.25
CAA T19G C55T A58C | 0.4
GAG T19G T53A T59A | 0.75

Variant | tRNA 3' processing efficiency
GAG T19C A20T A58G T59C | 0.36
GAA T8C T19A A20G A58G | 0.4
TAA T8C T53G T54C T59G | 0.2
CAT A20C T59A | 0.75
GAG T8C A14C T59A | 0.62
CAA T8G G15C A58C | 0.43
GAG T11A T19G | 0.67
AAA T19G C55T A58G | 0.57
CAT A58T T59A | 0.55
GAC T8C A14T T19G A33G | 0.33
GAT G9A A14T G18A A20T | 0.25
AAC A14G A20T | 0.4
CAT A14T G17A T19C A20T | 0.57
CAA T8G G15C T19G | 0.5
TAG T19A T59C | 0.5
CAC T8C T19G A58T T59C | 0.33
GAT A14T G15A T19A A58G | 0.25
GAA T8G A14G G15T A20T A33T A58C | 0.57
GAC A20T G51A A58G | 0.5
AAA T8C T19G A20T T53A T59A | 0.33
CAA T53A T59G | 0.25
GAC A14G G15C A58G T59G | 0.33
GAG A14G G15C G17C G18A A20T A58T | 0.2
GAA T8C T19A A20C C55T | 0.2

Variant | tRNA 3' processing efficiency
TAG G18T A20C | 0.5
GAT A14G G17T T19C | 0.25
TAA T8G T53A A58G T59A | 0.17
CAG T8C A58T | 0.29
AAC G17T A58G | 0.73
GAT A14C T59A | 0.33
AAA T8G T19G A33G A58G | 0.57
AAA T19C A58T T59A | 0.17
GAA T19G T53A A58G T59A | 0.2
GAA T19G T53A A58G T59C | 0.2
GAT A14G G15C | 0.55
CAC A14C T59C | 0.4
GAT A14C A58G T59A | 0.2
CAA T53A A58G T59G | 0.33
TAT G15A G17T A20G | 0.17
GAA T19C A20T T59G | 0.5
CAG T19C | 0.06
CAT A14T T59G | 0.5
AAT G15C A58T | 0.33
GAC T8G G40A | 0.5
CAG G15C G17C | 0.43
AAC T19G A20T T59G | 0.4
CAC G15T A58T | 0.29
AAC G1T C5T G6T A14C A58G | 0.57

Variant | tRNA 3' processing efficiency
GAC G9A A58T T59A | 0.33
AAA T19G A20C T53C | 0.4
CAC A14G T19G | 0.4
TAT G22A | 0.73
TAG A14G A20T | 0.14
TAA T19A A33G A58T | 0.57
TAG G9A A20T T59G | 0.5
GAC T24C | 0.25
AAA T53A T59G | 0.25
TAT G9A G15T | 0.78
GAC A14C G18A T19C | 0.25
GAG T8G A14T G15C | 0.25
TAA T8G G17T G18A T59A | 0.5
GAT G9A T19C T59G | 0.25
CAA T8C T19A A20C C55T T59G | 0.2
GAG A14T T19G G51T A58T | 0.33
TAG T8G A20C | 0.25
CAA T8C T19G T59G | 0.57
AAA T8G G9T T19A A58C | 0.25
AAC A14G T19G | 0.38
TAC A14T A20G | 0.29
TAG T19A A58G T59G | 0.4
AAT G17C A20T | 0.4
GAA T19A A20T G51A A58C | 0.1

Variant | tRNA 3' processing efficiency
AAA T19G A20T T59G | 0.17
GAA T27C T53A | 0.4
AAA T19G C55T T59A | 0.33
TAC G9A G15A A20C | 0.17
AAA T8C T59A | 0.2
GAA T13C T53C | 0.33
GAA T19A A20T T53G A58T | 0.25
GAT G9T G15T G18T T19C | 0.25
GAC A14G G17T T59A | 0.25
CAC T8G A58G T59G | 0.4
CAA T11C C55T | 0.75
AAC T8C A20G | 0.25
TAA T19A A20T G50T A58G | 0.38
GAG A14T T19A A58G T59A | 0.03
TAT G9A A14G | 0.27
TAC A14T A20G A58G | 0.17
CAG A20G T53G | 0.4
GAT A14G G15T G18C | 0.82
CAA T37C T54A | 0.25
CAT A14T T19C A58G | 0.25
AAA T19C T53G | 0.38
GAT A14G A20T G51A | 0.33
CAT G9T A33G A58T | 0.33
TAC A14C G15T A20T | 0.25

Variant | tRNA 3' processing efficiency
GAC A14C T19A A20C A58G T59C | 0.25
GAG T19C A58C | 0.56
GAA T8G G17A G18A A20G | 0.62
AAA T19A A20C T59A | 0.43
GAA T8G G15A G18C T19C A58T | 0.17
GAA T19A A20T T53A T59G | 0.14
GAA T19A G51A | 0.2
TAT G15C A58T | 0.38
GAG G1T G17C A20T T59C | 0.2
GAC A20G T53A T59G | 0.25
CAG G15C G18A | 0.43
GAC G15C T59G | 0.5
GAA T13C T59C | 0.4
AAG A14C A20G | 0.14
TAA T19G A58T T59G | 0.2
GAG G42A | 0.4
AAT G9T G15A | 0.57
GAA T19C A20C A58G T59A | 0.5
TAC T8C A14T A20G | 0.75
CAC A14T A58C | 0.14
CAG A14T G17T | 0.81
GAG T8G A14G G17T G18T | 0.4
GAT G15C G51A | 0.5

Reference: the supplement of paper PMC6445147
